The record followed here is paper PMC4429810, “Heat shock protein 90 inhibitors repurposed against Entamoeba histolytica” (Frontiers in Microbiology, 2015).

Sequences of proteins named here, by UniProt entry; tags and fusion partners are left off. Residues count along the entry.
UniProt C4MBP1, 1-215: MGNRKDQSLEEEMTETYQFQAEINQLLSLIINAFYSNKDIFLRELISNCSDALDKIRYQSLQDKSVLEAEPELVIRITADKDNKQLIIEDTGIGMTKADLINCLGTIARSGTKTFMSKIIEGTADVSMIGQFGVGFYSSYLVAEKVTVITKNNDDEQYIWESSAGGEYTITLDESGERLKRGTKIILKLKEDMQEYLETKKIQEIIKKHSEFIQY

The target of the test is T1, EhHsp90 ATP-binding domain (Entamoeba histolytica, UniProt C4MBP1).
T1 construct: gene EHI_102270; cloned from genomic DNA in pET28a, E. coli BL21(DE3); His tag said to be cut by TEV; pocket residues C49, C103, R109
The experiment in a line: bis-ANS fluorescence displacement screen. Particulars: read-out: Percent inhibition of fluorescence in protein screen at 2.5 μM (%). The source says: bis-ANS fluorescence displacement screen on EhHsp90 ATP-binding domain

A word on the inhibition: it is the relative decrease from the control value, in per cent. In the case of `CCCCCCCCCCCCCCCC[n+]1ccccc1` [Cetylpyridinium chloride], the inhibition at 2.5 µM was found to be 95.9%.
